Measured values published in PMC8241994.

Target: T1, Terminal uridyltransferase 7 (not stated (human or mouse cDNA cloned)) (UniProt Q5VYS8)
T1 sequence: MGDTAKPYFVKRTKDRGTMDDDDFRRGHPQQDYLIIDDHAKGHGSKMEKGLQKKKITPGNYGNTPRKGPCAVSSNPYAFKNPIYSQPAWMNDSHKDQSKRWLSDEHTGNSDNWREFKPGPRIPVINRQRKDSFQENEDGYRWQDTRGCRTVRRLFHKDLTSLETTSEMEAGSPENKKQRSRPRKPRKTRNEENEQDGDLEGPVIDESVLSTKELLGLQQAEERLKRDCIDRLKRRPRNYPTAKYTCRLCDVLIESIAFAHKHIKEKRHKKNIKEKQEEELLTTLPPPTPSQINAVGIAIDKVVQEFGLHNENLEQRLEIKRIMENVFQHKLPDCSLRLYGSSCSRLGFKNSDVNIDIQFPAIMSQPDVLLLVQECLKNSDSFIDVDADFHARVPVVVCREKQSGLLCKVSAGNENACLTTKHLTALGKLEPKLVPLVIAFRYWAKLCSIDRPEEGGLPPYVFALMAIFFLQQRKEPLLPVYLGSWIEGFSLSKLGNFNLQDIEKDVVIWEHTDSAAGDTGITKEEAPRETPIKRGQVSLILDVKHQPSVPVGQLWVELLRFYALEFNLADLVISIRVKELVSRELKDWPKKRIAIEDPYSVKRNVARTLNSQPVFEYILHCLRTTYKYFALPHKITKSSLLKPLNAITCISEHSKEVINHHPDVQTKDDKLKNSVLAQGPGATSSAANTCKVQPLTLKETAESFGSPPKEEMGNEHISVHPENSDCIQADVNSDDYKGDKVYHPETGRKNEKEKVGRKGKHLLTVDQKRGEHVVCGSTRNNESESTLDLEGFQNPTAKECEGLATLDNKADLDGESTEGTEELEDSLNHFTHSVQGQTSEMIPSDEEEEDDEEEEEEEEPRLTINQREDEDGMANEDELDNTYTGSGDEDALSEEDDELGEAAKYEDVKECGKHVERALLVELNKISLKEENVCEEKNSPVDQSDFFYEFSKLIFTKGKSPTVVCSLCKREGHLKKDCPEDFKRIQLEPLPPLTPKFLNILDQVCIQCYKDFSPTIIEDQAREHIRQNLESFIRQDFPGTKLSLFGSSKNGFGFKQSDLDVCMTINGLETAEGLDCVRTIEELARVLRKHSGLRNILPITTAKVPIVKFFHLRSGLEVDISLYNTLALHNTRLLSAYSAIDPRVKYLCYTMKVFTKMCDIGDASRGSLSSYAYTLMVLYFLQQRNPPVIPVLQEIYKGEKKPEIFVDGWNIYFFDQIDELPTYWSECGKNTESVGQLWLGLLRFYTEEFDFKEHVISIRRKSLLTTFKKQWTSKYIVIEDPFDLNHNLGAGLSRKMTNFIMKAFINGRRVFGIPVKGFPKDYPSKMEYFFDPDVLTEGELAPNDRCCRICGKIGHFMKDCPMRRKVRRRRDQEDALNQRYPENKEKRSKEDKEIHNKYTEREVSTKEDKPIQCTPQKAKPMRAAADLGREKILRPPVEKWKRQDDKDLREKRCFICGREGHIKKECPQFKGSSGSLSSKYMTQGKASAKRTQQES
Assay: co-IP; cell extracts in APB lysis buffer incubated with antibody and Protein A-conjugated agarose beads overnight at 4 °C, washed three times, immunoblotting; TUT7 precipitated, Regnase-1 probed; cells and constructs only in Supplementary Fig. 8a, b

Regnase-1 (enzyme)
binding: no binding

These are yes or no findings as the source states them, for the method shown. In cells and extracts the contact can be indirect.
